Results: article PMC9219869
These are yes or no findings as the source states them, for the method shown. In cells and extracts the contact can be indirect.

Amino acid sequences for entries named in this document (tags omitted).
UniProt P56450: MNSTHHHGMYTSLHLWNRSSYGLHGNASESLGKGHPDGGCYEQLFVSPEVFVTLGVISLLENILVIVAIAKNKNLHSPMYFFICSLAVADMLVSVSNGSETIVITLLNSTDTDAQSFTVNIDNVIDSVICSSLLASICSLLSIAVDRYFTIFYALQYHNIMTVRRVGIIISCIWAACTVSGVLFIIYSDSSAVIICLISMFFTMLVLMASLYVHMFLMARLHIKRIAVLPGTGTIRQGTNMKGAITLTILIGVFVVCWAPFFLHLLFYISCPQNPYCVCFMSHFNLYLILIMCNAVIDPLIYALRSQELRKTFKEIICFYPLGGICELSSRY

Target: MC4R of the RAMP3 negative control (not stated (zebrafish or mouse cDNA cloned)) (UniProt P56450)
Experiment: co-IP; HEK293T co-transfected 1:1, lysed 24-48 h later in IP cell lysis buffer; anti-HA immunoprecipitation overnight at 4 °C, Protein A+G agarose; blots with anti-HA and anti-Flag

- binding: no binding
B1: mouse receptor activity modifying protein 3 (protein, UniProt Q9WUP1 23-147)
chain: QVCGCNETGMLERLPRCGKAFADMMQKVAVWKWCNLSEFIVYYESFTNCTEMETNIMGCYWPNPLAQSFITGIHRQFFSNCTVDRTHWEDPPDEVLIPLIAVPVVLTVAMAGLVVWRSKHTDRLL
